Measured values taken from paper PMC5992204.
No constants are given. Whether binding was seen depends on the method and setting. For some of these results: In cells and extracts the contact can be indirect. Some binding calls cover weakened binding; strength is not graded here.

Chains of the proteins cited; added tags and fusions are not shown.
UniProt Q61967: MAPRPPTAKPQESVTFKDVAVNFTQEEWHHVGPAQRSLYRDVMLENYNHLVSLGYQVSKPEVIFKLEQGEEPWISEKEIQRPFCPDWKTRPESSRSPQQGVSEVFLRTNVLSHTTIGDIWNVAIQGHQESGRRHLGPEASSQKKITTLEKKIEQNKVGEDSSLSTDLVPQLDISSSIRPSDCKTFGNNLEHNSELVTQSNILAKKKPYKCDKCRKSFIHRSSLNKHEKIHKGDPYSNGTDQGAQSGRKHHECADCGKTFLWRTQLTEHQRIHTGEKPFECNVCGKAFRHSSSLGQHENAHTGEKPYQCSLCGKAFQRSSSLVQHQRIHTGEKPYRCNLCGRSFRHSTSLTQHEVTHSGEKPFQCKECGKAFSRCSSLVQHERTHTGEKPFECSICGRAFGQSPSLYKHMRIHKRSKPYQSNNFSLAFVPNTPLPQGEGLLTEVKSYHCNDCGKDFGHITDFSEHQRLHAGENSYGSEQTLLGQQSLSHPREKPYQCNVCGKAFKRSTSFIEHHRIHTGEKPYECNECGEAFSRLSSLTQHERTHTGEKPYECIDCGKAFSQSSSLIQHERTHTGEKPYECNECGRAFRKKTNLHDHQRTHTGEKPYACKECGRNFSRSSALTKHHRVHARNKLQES
UniProt Q6PGB8: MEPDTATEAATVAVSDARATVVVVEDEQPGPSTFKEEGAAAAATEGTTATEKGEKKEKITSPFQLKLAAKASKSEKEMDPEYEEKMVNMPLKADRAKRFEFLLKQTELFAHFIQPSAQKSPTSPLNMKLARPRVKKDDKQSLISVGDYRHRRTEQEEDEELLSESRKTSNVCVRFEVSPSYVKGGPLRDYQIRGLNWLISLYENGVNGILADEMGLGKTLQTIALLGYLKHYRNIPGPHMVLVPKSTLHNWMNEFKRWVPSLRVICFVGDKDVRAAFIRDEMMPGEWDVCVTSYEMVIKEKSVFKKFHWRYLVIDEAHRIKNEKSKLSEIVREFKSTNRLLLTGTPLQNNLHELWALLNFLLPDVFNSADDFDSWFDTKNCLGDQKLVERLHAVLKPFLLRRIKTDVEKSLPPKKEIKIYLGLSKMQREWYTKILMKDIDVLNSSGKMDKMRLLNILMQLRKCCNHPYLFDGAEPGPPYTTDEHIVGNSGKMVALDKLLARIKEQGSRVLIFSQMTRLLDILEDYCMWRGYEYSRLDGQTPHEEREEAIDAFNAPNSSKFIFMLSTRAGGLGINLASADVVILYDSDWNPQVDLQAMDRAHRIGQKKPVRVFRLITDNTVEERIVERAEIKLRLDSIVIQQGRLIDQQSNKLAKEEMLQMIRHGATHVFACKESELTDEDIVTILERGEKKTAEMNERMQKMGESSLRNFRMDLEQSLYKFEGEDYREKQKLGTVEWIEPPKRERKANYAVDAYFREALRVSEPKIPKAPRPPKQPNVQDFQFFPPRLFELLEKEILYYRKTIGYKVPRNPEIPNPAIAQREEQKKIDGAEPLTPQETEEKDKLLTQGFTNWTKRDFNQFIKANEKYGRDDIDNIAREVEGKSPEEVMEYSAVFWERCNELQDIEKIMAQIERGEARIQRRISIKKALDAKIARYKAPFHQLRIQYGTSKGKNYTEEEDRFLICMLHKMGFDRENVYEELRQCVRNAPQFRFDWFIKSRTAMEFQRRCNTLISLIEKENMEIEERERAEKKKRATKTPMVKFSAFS
UniProt A2A654: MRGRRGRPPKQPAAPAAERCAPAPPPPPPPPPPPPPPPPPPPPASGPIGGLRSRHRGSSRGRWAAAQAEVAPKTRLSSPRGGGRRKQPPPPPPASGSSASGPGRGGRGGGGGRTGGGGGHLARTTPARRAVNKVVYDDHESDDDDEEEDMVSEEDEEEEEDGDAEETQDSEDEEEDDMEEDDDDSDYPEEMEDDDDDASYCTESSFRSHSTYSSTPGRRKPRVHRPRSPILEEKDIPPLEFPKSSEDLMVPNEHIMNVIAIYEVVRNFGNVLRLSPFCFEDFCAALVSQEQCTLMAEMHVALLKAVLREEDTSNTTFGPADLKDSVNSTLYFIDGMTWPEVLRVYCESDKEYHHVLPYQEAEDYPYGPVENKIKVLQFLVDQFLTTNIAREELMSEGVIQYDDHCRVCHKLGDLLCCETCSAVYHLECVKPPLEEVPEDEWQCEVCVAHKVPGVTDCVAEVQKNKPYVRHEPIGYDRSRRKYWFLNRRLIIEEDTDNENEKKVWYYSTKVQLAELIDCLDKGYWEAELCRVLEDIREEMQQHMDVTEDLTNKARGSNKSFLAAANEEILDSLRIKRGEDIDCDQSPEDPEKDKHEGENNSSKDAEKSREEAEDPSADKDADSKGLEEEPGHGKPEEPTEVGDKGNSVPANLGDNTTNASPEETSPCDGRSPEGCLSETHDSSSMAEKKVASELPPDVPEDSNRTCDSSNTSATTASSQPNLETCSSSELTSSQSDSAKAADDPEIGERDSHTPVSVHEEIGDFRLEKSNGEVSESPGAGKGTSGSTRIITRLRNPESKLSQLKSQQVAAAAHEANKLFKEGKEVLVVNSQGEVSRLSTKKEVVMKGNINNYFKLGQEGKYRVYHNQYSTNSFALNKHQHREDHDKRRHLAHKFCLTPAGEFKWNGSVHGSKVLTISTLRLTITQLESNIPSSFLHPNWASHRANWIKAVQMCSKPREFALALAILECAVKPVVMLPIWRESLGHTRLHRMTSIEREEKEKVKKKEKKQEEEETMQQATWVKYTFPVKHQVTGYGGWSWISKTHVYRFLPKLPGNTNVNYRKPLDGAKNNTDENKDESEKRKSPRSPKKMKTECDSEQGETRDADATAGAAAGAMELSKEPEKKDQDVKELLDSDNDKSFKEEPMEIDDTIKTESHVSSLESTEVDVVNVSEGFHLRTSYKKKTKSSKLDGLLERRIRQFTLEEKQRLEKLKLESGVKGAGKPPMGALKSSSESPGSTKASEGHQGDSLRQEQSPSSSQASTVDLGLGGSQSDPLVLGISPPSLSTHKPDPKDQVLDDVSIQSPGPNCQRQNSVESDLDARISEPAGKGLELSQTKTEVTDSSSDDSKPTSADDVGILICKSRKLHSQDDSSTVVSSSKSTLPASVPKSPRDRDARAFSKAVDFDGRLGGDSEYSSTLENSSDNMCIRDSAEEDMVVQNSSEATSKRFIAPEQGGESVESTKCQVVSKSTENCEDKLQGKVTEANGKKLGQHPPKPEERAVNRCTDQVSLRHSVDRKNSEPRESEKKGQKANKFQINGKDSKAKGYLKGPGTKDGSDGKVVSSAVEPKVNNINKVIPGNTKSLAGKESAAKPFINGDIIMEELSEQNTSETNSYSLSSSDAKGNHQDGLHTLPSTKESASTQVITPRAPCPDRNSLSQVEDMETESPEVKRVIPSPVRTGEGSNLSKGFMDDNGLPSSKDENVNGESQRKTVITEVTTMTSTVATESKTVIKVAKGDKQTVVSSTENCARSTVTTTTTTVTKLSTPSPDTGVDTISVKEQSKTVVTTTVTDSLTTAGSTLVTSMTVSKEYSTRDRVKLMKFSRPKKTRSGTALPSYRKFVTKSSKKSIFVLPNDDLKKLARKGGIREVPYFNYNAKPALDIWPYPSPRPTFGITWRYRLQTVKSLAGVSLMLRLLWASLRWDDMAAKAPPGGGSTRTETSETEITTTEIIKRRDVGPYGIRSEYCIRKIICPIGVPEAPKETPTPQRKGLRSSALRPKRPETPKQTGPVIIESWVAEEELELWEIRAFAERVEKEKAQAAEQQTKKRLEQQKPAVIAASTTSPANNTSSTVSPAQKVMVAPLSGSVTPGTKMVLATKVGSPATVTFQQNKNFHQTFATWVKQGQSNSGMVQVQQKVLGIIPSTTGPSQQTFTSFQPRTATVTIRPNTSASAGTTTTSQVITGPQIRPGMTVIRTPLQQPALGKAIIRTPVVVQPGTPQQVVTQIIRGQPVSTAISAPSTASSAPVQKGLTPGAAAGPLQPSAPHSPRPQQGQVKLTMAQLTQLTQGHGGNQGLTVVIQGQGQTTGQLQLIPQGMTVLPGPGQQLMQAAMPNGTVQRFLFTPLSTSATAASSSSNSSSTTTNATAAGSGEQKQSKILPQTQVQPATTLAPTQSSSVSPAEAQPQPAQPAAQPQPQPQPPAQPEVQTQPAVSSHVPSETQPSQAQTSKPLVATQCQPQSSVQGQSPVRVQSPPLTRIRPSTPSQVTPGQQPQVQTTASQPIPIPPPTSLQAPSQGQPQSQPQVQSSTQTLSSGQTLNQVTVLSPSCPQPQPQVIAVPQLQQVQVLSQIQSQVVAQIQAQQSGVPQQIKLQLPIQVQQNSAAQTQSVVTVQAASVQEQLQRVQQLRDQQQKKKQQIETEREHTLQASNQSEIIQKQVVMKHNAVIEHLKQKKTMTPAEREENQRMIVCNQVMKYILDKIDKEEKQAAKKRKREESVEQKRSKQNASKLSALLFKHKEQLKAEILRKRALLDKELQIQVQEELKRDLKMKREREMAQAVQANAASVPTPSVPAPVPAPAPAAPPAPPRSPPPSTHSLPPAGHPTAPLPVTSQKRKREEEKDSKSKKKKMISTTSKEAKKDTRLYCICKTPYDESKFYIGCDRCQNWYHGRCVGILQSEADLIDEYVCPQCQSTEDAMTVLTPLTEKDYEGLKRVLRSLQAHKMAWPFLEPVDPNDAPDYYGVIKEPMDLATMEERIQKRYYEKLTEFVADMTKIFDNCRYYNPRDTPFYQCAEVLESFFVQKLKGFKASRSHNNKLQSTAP

Experiments:
[1] = target: Myc-tagged Zfp90 (mouse) (UniProt Q61967); experiment: co-IP; Flag-Bptf, Myc-Zfp90, HA-Snf2l and His-Rbbp4 co-transfected into 293T cells for 36 h; RIPA lysis; antibody overnight at 4 °C, protein A/G agarose, immunoblot
[2] = target: GST-tagged Zfp90 (mouse) (UniProt Q61967); experiment: pull-down; purified GST-Zfp90 incubated with His-Snf2l, His-Rbbp4 or Flag-Bptf at 4 °C for 4 h, then GST beads and western blot; both purified
[3] = target: endogenous Zfp90 (mouse (endogenous in bone marrow cells)) (UniProt Q61967); experiment: co-IP; mouse BM cell lysates incubated with anti-Zfp90; immunoblot; endogenous proteins

binding [2]	Substance	also measured
	HA-Snf2l (from UniProt Q6PGB8 1-1046)	binding [1]: binds
no binding	Flag tagged Bptf, purified (from UniProt A2A654 1-3036)	
	endogenous Snf2l (from UniProt Q6PGB8 1-1046)	binding [3]: binds
binds	His-tagged Snf2l (from UniProt Q6PGB8 1-1046)	
